Test results published in the supplement of paper PMC11006884.
The entries are a selection whose mix differs from that of the whole data set.

Amino acid sequences for entries named in this document (tags omitted). A change or cut given only in a name is not applied to a line headed by its entry.
UniProt Q92973: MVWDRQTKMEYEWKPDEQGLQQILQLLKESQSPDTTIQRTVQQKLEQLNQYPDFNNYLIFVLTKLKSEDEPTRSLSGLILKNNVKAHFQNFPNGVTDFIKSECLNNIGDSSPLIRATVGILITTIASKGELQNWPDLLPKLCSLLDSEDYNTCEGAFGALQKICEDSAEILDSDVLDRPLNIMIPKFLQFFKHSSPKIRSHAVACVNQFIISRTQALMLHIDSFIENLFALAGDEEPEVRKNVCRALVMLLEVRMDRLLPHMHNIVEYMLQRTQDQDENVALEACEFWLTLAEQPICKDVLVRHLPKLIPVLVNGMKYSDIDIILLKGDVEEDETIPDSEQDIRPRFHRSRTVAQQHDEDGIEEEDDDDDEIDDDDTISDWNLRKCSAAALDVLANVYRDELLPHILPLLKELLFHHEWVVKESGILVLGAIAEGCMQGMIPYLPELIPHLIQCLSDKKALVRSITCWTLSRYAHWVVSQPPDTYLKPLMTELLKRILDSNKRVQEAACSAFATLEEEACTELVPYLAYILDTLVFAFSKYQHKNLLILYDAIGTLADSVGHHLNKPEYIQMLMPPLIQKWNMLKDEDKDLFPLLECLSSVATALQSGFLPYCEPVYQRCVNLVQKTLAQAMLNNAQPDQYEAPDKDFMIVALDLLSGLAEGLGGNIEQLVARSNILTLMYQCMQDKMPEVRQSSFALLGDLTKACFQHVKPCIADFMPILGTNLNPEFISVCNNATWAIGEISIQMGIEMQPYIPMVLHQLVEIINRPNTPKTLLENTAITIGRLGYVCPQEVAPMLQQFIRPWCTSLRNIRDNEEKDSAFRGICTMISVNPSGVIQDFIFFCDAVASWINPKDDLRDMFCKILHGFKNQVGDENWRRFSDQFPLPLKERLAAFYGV
UniProt Q92917: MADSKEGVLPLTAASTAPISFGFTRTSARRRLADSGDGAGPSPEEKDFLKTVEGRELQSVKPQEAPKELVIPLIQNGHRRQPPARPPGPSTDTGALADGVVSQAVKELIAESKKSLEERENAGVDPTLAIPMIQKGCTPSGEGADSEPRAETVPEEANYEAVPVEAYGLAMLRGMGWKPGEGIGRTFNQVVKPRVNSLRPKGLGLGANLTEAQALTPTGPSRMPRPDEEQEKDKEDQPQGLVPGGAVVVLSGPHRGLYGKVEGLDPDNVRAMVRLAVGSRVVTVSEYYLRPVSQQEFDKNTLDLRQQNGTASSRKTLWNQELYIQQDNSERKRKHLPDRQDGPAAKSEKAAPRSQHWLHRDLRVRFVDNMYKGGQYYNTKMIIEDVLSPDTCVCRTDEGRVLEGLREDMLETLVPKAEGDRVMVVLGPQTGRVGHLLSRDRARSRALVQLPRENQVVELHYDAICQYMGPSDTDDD
UniProt Q96F86: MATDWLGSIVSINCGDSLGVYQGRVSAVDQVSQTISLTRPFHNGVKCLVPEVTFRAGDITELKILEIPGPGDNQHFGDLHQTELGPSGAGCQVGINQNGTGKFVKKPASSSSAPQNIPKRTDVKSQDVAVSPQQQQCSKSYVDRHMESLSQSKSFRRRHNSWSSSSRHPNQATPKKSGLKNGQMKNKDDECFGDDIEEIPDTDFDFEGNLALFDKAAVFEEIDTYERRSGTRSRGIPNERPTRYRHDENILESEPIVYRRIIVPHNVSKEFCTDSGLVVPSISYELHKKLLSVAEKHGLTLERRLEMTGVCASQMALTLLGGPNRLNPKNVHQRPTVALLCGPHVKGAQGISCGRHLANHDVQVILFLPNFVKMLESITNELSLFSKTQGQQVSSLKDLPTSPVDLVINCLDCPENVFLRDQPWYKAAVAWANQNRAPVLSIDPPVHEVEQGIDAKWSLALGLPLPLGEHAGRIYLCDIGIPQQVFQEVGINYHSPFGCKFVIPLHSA
UniProt Q92616, whole entry, looked up: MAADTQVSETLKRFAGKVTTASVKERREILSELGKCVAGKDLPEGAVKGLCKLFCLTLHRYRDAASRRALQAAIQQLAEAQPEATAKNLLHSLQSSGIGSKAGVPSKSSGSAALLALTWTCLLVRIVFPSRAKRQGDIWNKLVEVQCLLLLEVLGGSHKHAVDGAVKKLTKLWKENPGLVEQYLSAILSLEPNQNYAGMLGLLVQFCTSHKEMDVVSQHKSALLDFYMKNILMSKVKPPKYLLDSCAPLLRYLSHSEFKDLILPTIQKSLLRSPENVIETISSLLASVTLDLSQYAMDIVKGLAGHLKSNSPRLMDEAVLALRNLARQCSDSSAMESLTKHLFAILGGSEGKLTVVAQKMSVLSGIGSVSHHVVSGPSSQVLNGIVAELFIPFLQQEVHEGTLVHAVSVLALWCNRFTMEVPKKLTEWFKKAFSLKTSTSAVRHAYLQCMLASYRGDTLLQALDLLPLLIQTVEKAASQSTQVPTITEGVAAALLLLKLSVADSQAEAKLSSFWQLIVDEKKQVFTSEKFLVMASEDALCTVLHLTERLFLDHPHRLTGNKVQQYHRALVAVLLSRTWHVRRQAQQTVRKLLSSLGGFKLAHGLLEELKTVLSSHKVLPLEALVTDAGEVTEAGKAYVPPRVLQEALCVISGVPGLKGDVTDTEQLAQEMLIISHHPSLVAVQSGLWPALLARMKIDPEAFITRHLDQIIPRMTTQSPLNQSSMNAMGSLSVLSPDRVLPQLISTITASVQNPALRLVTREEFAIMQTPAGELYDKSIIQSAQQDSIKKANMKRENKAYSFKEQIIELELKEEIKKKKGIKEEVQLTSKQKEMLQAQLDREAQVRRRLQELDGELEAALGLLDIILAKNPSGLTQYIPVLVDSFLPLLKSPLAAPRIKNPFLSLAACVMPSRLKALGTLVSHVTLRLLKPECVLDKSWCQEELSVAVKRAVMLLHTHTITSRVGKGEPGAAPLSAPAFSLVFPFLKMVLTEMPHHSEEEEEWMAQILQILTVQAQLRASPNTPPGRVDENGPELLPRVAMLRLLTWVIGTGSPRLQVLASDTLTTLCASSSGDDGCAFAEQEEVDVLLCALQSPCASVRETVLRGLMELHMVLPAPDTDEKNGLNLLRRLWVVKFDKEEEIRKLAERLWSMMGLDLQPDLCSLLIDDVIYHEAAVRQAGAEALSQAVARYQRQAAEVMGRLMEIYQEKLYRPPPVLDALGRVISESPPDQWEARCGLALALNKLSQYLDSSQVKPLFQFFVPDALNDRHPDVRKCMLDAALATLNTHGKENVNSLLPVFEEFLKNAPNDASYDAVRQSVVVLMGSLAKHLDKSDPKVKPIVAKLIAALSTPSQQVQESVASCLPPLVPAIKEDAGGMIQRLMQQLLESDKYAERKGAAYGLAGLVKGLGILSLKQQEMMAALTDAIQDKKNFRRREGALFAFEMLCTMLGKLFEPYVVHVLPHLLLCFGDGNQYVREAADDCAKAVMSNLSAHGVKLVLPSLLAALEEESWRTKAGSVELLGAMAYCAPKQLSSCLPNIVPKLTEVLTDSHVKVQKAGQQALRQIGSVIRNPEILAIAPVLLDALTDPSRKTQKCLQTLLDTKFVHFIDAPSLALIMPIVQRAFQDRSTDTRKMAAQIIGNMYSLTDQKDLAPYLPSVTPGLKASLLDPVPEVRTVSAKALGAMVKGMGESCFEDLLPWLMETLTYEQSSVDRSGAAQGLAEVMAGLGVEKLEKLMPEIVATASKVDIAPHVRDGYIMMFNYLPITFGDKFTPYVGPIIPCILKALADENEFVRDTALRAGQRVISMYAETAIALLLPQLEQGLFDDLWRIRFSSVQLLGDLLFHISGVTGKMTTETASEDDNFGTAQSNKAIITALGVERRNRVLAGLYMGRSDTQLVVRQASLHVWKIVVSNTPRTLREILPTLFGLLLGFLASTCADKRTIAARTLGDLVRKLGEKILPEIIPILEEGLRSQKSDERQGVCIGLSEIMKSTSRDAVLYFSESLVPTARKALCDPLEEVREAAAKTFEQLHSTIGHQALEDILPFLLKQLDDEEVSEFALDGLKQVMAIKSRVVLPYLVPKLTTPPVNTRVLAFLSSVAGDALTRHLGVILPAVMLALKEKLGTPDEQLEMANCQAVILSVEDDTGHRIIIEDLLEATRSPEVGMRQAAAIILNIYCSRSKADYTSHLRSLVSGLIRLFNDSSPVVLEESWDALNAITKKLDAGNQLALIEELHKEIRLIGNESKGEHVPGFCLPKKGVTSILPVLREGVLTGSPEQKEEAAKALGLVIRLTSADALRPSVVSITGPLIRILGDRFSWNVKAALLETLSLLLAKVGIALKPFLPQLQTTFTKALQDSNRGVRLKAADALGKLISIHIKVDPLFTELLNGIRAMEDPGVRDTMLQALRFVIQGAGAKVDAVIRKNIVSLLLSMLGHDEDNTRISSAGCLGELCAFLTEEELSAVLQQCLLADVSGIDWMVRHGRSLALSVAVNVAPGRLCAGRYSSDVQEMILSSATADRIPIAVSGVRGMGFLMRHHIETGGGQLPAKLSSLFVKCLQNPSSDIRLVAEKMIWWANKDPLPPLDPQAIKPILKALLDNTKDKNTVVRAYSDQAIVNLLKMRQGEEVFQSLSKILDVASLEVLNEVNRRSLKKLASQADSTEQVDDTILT
UniProt Q96GX9: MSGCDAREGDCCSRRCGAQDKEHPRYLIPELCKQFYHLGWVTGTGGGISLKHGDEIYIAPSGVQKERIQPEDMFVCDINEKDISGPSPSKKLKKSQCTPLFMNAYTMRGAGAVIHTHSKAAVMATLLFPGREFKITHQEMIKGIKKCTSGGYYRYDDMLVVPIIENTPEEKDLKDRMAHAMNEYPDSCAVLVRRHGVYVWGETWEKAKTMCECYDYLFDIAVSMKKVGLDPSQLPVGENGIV
UniProt Q96H79: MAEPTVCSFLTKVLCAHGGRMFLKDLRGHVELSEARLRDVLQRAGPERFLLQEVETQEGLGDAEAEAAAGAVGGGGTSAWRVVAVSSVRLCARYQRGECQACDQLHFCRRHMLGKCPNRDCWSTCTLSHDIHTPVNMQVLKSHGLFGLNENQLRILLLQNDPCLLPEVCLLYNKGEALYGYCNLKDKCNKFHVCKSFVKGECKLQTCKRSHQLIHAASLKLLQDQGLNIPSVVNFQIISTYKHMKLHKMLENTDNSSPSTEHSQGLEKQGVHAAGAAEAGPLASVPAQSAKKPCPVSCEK
UniProt Q96GC9: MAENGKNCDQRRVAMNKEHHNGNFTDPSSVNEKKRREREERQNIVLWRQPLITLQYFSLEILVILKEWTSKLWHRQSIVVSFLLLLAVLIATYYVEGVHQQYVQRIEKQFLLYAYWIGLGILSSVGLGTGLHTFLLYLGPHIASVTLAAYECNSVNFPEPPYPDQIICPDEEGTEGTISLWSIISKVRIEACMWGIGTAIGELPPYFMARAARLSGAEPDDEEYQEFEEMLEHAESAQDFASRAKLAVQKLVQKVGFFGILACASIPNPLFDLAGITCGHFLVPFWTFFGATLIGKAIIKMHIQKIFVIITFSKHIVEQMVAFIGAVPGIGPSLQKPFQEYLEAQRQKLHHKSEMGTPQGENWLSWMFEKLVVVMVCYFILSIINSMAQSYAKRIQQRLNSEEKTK
UniProt Q96GS4: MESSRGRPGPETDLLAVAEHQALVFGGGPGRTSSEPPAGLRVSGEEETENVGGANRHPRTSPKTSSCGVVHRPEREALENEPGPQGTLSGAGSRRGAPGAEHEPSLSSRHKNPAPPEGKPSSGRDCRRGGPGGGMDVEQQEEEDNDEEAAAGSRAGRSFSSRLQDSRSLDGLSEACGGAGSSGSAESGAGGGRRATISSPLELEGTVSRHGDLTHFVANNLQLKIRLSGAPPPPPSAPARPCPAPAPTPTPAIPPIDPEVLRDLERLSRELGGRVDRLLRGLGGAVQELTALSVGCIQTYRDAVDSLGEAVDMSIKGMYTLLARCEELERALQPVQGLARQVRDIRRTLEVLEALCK
UniProt Q96HE7: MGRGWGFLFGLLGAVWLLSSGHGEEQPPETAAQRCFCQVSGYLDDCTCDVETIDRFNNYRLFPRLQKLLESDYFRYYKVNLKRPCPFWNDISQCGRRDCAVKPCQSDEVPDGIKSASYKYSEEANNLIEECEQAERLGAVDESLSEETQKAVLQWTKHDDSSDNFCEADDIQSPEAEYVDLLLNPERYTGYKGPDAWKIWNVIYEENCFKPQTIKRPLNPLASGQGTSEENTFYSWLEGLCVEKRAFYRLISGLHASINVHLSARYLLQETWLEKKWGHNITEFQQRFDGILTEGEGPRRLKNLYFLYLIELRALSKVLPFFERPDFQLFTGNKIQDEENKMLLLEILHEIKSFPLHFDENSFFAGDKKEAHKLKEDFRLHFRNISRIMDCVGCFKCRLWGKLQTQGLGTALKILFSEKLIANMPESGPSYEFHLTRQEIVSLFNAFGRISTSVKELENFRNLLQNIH
UniProt Q969T4: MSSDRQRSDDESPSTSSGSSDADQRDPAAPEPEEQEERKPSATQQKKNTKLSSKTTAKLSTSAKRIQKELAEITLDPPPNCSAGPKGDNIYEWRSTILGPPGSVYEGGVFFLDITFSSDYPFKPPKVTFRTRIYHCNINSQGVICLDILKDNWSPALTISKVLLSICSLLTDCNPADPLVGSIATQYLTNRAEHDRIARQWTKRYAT

Compound: COC(=O)C#Cc1ccccc1 [methyl 3-phenylpropiolate]
Test: log2 ratio of iodoacetamide-alkyne labeling of the cysteine site, DMSO over compound (competition); higher = stronger covalent engagement of the cysteine by the compound, active = 1 or more
Settings: 500 µM; treatment time 1 h; system: HEK293T cell lysate
Procedure, shortened: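 For each cysteine, the log2 competition ratio is mean control-channel reporter intensity over mean compound-channel reporter intensity. HEK293T lysate (2 mg/mL) was exposed to vehicle or electrophile (500 µM, 1 h, ambient temperature), labelled with iodoacetamide alkyne (1 h), clicked to sCIP-TMT reagents, digested overnight with trypsin at 37 °C, streptavidin-enriched and analysed by Orbitrap Eclipse LC-MS/MS with FAIMS and FragPipe. Cysteines quantified in only one of three replicates, each with duplicate channels, were excluded.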

log2 ratio of iodoacetamide-alkyne labeling, inactive:
CLP1 C338 (UniProt Q92989) 0.264, TNPO1 C683 (UniProt Q92973) 0.399, FUBP1 C148 (UniProt Q96AE4) 0.138, RPL36AL C77 (UniProt Q969Q0) -0.113, TSC1 C306 (UniProt Q92574) 0.724, RAD54L C20 (UniProt Q92698) 0.453, GPKOW C137 (UniProt Q92917) 0.23, EDC3 C413 (UniProt Q96F86) -0.0482, USP9X C1808 (UniProt Q93008) 0.0632, UniProt Q92616_C2558 0.196, UniProt Q92616_C1692 0.202, APIP C147 (UniProt Q96GX9) -0.0469, NRBF2 C155 (UniProt Q96F24) 0.664, ZC3HAV1L C125 (UniProt Q96H79) 0.308, GCDH C115 (UniProt Q92947) 0.212, TAF15 C360 (UniProt Q92804) 0.0291, UniProt Q96GC9_C8 0.682, NT5C3B C56 (UniProt Q969T7) 0.535, UniProt Q96GS4_C176 0.558, UniProt Q96HE7_C166 0.283, UBE2E3 C81 (UniProt Q969T4) 0.412, Sirt1 C380 (UniProt Q96EB6) 0.579
